The assay addresses recombinant human integrin αvβ8 ectodomain (human). The assay can be described thus: cryo-EM of the complex.

These are yes or no findings as the source states them, for the method shown. Binding calls can cover weak binding; strength is not graded here.

B1: ADWA 11 2.4 Fab (Fab, V domains shown)
VH: EVQLVESGGGLVQPGGSLRLSCAASGFNIKDYYMNWVRQAPGKGLEWVGWIDPDQGNTIYEPKFQGRFTISADTSKNSAYLQMNSLRAEDTAVYYCARRLLMDYWGQGTLVTVSS
VL: DIQMTQSPSSLSASVGDRVTITCRSTKSLSHFNGNTYLFWYQQKPGKAPKRLIYYMSSLASGVPSRFSGSGSGTDFTLTISSLQPEDFATYYCQQSLEYPFTFGGGTKVEIKR
Turning to B1, the binding result is listed as “binds”.

(Values after patent US20260139057A1 (University of California, published 2026).)
